# Laboratory results: the supplement of paper PMC8728848
# Some of the results follow.
# B1: SJCP1531 (Schistosoma japonicum) (protein)
# chain: MFKVRIINLVNISTVLLLINLLQTKSQVNVEQLVTVLEVNIKAQLKNKTTEVLVEWNPLYQDNSMPEYRKLLDETCKLFLPFVNEKVPPSTYGGECTNANFSEAPQDGSYSRVNAELRLIYKYSDNPQIQTDRLQDDLNDREEFITSESSFVAYNPKFTVKIEKLFIPISESQTTPPPTTAKNDASKKDDDDNGGEDSKAPIDTFAMTASGNKGKKDDDDNGGEDSKAPIDTFAMTASGSKDERSTWTIIGIITLVVLIFVVIGGGITVFVKRC
# Key:
# Assay in all cases: glycan array binding signal (z-score within array); higher = stronger binding
# Settings in all cases: glycan notation: IUPAC condensed, linker removed
# [1] = target: Gal(b1-3)GlcNAc(b1-2)Man(a1-3)[Gal(b1-3)GlcNAc(b1-2)Man(a1-6)]Man(b1-4)GlcNAc(b1-4)[Fuc(a1-6)]GlcNAc
# Summary of the method: (§1)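 The Consortium for Functional Glycomics database supplied 3228 glycan arrays, of which those lacking an available protein sequence were dropped. The binding signal, a within-array Z-score, was averaged across arrays of the same protein sequence and across linkers. Negative scores can be read as non-binding.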
# [2] = target: Gal(b1-3)GlcNAc(b1-2)Man(a1-3)[GlcNAc(b1-4)][Gal(b1-3)GlcNAc(b1-2)Man(a1-6)]Man(b1-4)GlcNAc(b1-4)GlcNAc
# Summary of the method: as §1
# [3] = target: Gal(b1-3)GlcNAc(b1-2)[Gal(b1-3)GlcNAc(b1-6)]Man(a1-6)[Gal(b1-3)GlcNAc(b1-2)Man(a1-3)]Man(b1-4)GlcNAc(b1-4)GlcNAc
# Summary of the method: as §1
# [4] = target: Gal(b1-3)GlcNAc(b1-3)Gal(b1-3)GlcNAc
# Summary of the method: as §1
# [5] = target: Gal(b1-3)GlcNAc(b1-3)Gal(b1-4)Glc
# Summary of the method: as §1
# [6] = target: Gal(b1-3)GlcNAc(b1-3)Gal(b1-4)GlcNAc
# Summary of the method: as §1
# [7] = target: Gal(b1-3)GlcNAc(b1-3)Gal(b1-4)GlcNAc(b1-2)Man(a1-3)[Gal(b1-3)GlcNAc(b1-3)Gal(b1-4)GlcNAc(b1-2)Man(a1-6)]Man(b1-4)GlcNAc(b1-4)GlcNAc
# Summary of the method: as §1
# [8] = target: Gal(b1-3)GlcNAc(b1-3)Gal(b1-4)GlcNAc(b1-2)[Gal(b1-3)GlcNAc(b1-3)Gal(b1-4)GlcNAc(b1-6)]Man(a1-6)[Gal(b1-3)GlcNAc(b1-3)Gal(b1-4)GlcNAc(b1-2)Man(a1-3)]Man(b1-4)GlcNAc(b1-4)[Fuc(a1-6)]GlcNAc
# Summary of the method: as §1
# [9] = target: Gal(b1-3)GlcNAc(b1-3)Gal(b1-4)GlcNAc(b1-3)Gal(b1-4)GlcNAc(b1-2)[Gal(b1-3)GlcNAc(b1-3)Gal(b1-4)GlcNAc(b1-3)Gal(b1-4)GlcNAc(b1-6)]Man(a1-6)[Gal(b1-3)GlcNAc(b1-3)Gal(b1-4)GlcNAc(b1-3)Gal(b1-4)GlcNAc(b1-2)Man(a1-3)]Man(b1-4)GlcNAc(b1-4)[Fuc(a1-6)]GlcNAc
# Summary of the method: as §1
# [10] = target: Gal(b1-3)GlcNAc(b1-3)Gal(b1-4)GlcNAc(b1-6)[Gal(b1-3)GlcNAc(b1-3)]Gal(b1-4)Glc
# Summary of the method: as §1
# [11] = target: Gal(b1-3)GlcNAc(b1-3)Gal(b1-4)[Fuc(a1-3)]GlcNAc
# Summary of the method: as §1
# [12] = target: Gal(b1-3)GlcNAc(b1-3)Gal(b1-4)[Fuc(a1-3)]GlcNAc(b1-6)[Gal(b1-3)GlcNAc(b1-3)]Gal(b1-4)Glc
# Summary of the method: as §1
# [13] = target: Gal(b1-3)GlcNAc(b1-3)GalNAc
# Summary of the method: as §1
# [14] = target: Gal(b1-3)GlcNAc(b1-6)Gal(b1-4)GlcNAc
# Summary of the method: as §1
# [15] = target: Gal(b1-3)GlcNAc(b1-6)GalNAc
# Summary of the method: as §1
# [16] = target: Gal(b1-3)GlcNAc(b1-6)[Gal(b1-3)]GalNAc
# Summary of the method: as §1
# Gal(b1-3)GlcNAc6S = target: Gal(b1-3)GlcNAc6S
# Summary of the method: as §1
# [17] = target: Gal(b1-3)[Fuc(a1-4)]GlcNAc
# Summary of the method: as §1
# [18] = target: Gal(b1-3)[Fuc(a1-4)]GlcNAc(b1-2)Man
# Summary of the method: as §1
# [19] = target: Gal(b1-3)[Fuc(a1-4)]GlcNAc(b1-2)Man(a1-3)[Gal(b1-3)[Fuc(a1-4)]GlcNAc(b1-2)Man(a1-6)]Man(b1-4)GlcNAc(b1-4)[Fuc(a1-6)]GlcNAc
# Summary of the method: as §1
# [20] = target: Gal(b1-3)[Fuc(a1-4)]GlcNAc(b1-3)Gal(b1-3)[Fuc(a1-4)]GlcNAc
# Summary of the method: as §1
# [21] = target: Gal(b1-3)[Fuc(a1-4)]GlcNAc(b1-3)Gal(b1-4)[Fuc(a1-3)]GlcNAc
# Summary of the method: as §1
# [22] = target: Gal(b1-3)[Fuc(a1-4)]GlcNAc(b1-6)GalNAc
# Summary of the method: as §1
# [23] = target: Gal(b1-3)[GlcNAc(b1-6)]GalNAc
# Summary of the method: as §1
# [24] = target: Gal(b1-3)[Neu5Ac(a2-6)]GalNAc
# Summary of the method: as §1
# [25] = target: Gal(b1-3)[Neu5Ac(a2-6)]GlcNAc(b1-4)Gal(b1-4)Glc
# Summary of the method: as §1
# [26] = target: Gal(b1-3)[Neu5Ac(b2-6)]GalNAc
# Summary of the method: as §1
# Gal(b1-4)Gal = target: Gal(b1-4)Gal
# Summary of the method: as §1
# [27] = target: Gal(b1-4)GalNAc(a1-3)[Fuc(a1-2)]Gal(b1-4)GlcNAc
# Summary of the method: as §1
# [28] = target: Gal(b1-4)GalNAc(b1-3)[Fuc(a1-2)]Gal(b1-4)GlcNAc
# Summary of the method: as §1
# Gal(b1-4)Glc = target: Gal(b1-4)Glc
# Summary of the method: as §1
# Gal(b1-4)Glc6S = target: Gal(b1-4)Glc6S
# Summary of the method: as §1
# Gal(b1-4)GlcNAc = target: Gal(b1-4)GlcNAc
# Summary of the method: as §1
# [29] = target: Gal(b1-4)GlcNAc(a1-6)Gal(b1-4)GlcNAc
# Summary of the method: as §1
# Gal(b1-4)GlcNAc(b1-2)Man = target: Gal(b1-4)GlcNAc(b1-2)Man
# Summary of the method: as §1
# [30] = target: Gal(b1-4)GlcNAc(b1-2)Man(a1-3)Man(b1-4)GlcNAc(b1-4)GlcNAc
# Summary of the method: as §1
# [31] = target: Gal(b1-4)GlcNAc(b1-2)Man(a1-3)[Gal(b1-4)GlcNAc(b1-2)Man(a1-6)]Man(b1-4)GlcNAc(b1-4)GlcNAc
# Summary of the method: as §1
binder,measurement,setting,value
B1,glycan array binding signal (z-score),[1],1.03
same,glycan array binding signal (z-score),[2],1.55
same,glycan array binding signal (z-score),[3],2.11
same,glycan array binding signal (z-score),[4],-0.382
same,glycan array binding signal (z-score),[5],-1.1
same,glycan array binding signal (z-score),[6],-0.806
same,glycan array binding signal (z-score),[7],-0.691
same,glycan array binding signal (z-score),[8],1.35
same,glycan array binding signal (z-score),[9],0.637
same,glycan array binding signal (z-score),[10],1.37
same,glycan array binding signal (z-score),[11],0.726
same,glycan array binding signal (z-score),[12],-1.15
same,glycan array binding signal (z-score),[13],-1.3
same,glycan array binding signal (z-score),[14],-0.48
same,glycan array binding signal (z-score),[15],-0.943
same,glycan array binding signal (z-score),[16],-0.693
same,glycan array binding signal (z-score),Gal(b1-3)GlcNAc6S,-1.17
same,glycan array binding signal (z-score),[17],-0.983
same,glycan array binding signal (z-score),[18],1.86
same,glycan array binding signal (z-score),[19],0.563
same,glycan array binding signal (z-score),[20],-0.008
same,glycan array binding signal (z-score),[21],0.284
same,glycan array binding signal (z-score),[22],-0.809
same,glycan array binding signal (z-score),[23],-0.044
same,glycan array binding signal (z-score),[24],-0.726
same,glycan array binding signal (z-score),[25],-1.38
same,glycan array binding signal (z-score),[26],-0.233
same,glycan array binding signal (z-score),Gal(b1-4)Gal,-0.573
same,glycan array binding signal (z-score),[27],1.14
same,glycan array binding signal (z-score),[28],-0.618
same,glycan array binding signal (z-score),Gal(b1-4)Glc,-0.654
same,glycan array binding signal (z-score),Gal(b1-4)Glc6S,1.1
same,glycan array binding signal (z-score),Gal(b1-4)GlcNAc,-0.495
same,glycan array binding signal (z-score),[29],-0.586
same,glycan array binding signal (z-score),Gal(b1-4)GlcNAc(b1-2)Man,0.588
same,glycan array binding signal (z-score),[30],0.954
same,glycan array binding signal (z-score),[31],-0.745

# Quoted at random: two entries already listed
binder,measurement,setting,value
B1,glycan array binding signal (z-score),Gal(b1-4)Glc,-0.654
same,glycan array binding signal (z-score),Gal(b1-4)Glc6S,1.1
